Measurements published in PubChem BioAssay AID1508600 (Functional Genomics Laboratory (NCATS/FGL), 2020).
The campaign covered roughly 53,000 sequences. About 3,700 (7%) were called active.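 The calls were made as follows: active = gene knockdowns whose robust z-score for IL-1 alpha signal is at least 2 or at most -2, so actives lie on both sides; inactive = the rest.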 The list shows a part of the results.

Assay: Components of the Cytosolic LPS Sensing Pathway: Gene Identification via Genome-wide siRNA Screen;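 also: robust z of the log signal after scaling to non-targeting control siRNA wells of the plate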
Conditions: RAW264.7 macrophages, IL-1a HTRF, actives lie on both sides, screened at 100 nM (by protocol), cells primed 5 h with Pam3CSK4 first
Summary of the method: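 Read-out: IL-1a HTRF on supernatant, divided by plate negative-control median ×100, log-transformed and converted to robust z-score. Cells were RAW264.7 given 100 nM siRNA, Pam3CSK4-primed 5 hours, then LipidA-transfected 24 hour.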

z-score, active:
GGUCUCUGGUAAGAAGAGCTT against Zfp276 2.95
GGAUUUCAAAGUGCUUUGCTT against Kifap3 3.44
GGUCAUCCUCAAGAUGAAGTT against Zfp819 -2.82
GGCCACUUCGUGUUCUUUUTT against Hoxa10 2.08
GGAUGUACACAGAAGGCCATT against Sucnr1 3.47
CCUAGUCCUGAUUUAUCAGTT against Ddx39b -2.02
GGAACCUCUUGGACAAAGATT against Cpne5 2.17
GGUUUUUUGUAGCAAACAGTT against Phc2 -2.7
GGUGUGGAAGUCAGUUUAATT against Serpinb3a 2.53

z-score, inactive:
CCUGCUUACCAAAGAAUCCTT against Klf11 -0.884
GGAAAAUGCUGUCCAGUGGTT against Rdh11 -0.858
GGUAUUGGUUUCAUCCACCTT against Impdh2 1.93
UCUGUUUCUAACAAGUGCATT against Taar7e 0.22
CCAAGUCUUGGAAAAUAACTT against Wfdc15a -1.09
CGAAAUGGACUUCAACUUCTT against Foxo6 0.73
CCAAGGUACUACUGGGAGATT against Sval3 0.268
GGAUGAUUACAGAUAUGAUTT against Ccdc82 1.21
GGUCUCCUGUACAGAAAAUTT against Retreg3 -0.652
CCUUUAUUGGUGUUGGCCGTT against Apbb3 0.501
GCUAUGGACCUCAGCAUAGTT against Inpp5e 1.8
CCAGUCCAUUGAAUAGUUCTT against Papola 0.329
CGCAGGAUACAGCUAUAUUTT against Elovl4 1.37
GGAAUCAGUGGUACCAAAUTT against Sorcs1 -0.623
GGCUAUGAAGACUGGGUUUTT against Septin12 -0.204
GGUGUGUUCAGGAGUUGAUTT against Col12a1 0.505
GGAGCUUGAUUCGAAGCCUTT against Bik -0.364
GGGCAAGUAUGGGCAGUUCTT against Ppp1ca 0.0965
CUCGCUGCCCGGCGGCCUCTT against Sox3 0.092
GGCUAAUAUUUCCAUUGUATT against Fibin -0.365
GGACGGUCUUGAAAAUGGATT against Creld1 -0.948
GGAAGAACAAAGAAAGAAGTT against Ccdc66 -1.13
CGUAUUCCACUGCACUUUGTT against Ugt2a3 1.16
CCCACGGACUGGCCAGUAATT against Hyi 1.96
GGAAGAGGCAGCUUUUGGATT against Impg2 0.163
GGUCUGGAAAACCAGCUUATT against D630039A03Rik 1.04
GCUGAAGGGACUCUAACCATT against Ihh 0.715
CGGCUCGUACACAUGUGAATT against Creld2 0.199
GGCCCUCAAAAAUAAGUUUTT against Hsd3b3 0.554
CGGUUACAAUUCAGUGAUATT against Mapk10 -0.505
GGCUGCUUUACUGAAGUAATT against C2cd6 1.29
GGAAUUUGAAACUUACGGCTT against Oc90 0.379
GGUACUUCUCAUGGAUAAATT against Vps45 -0.234
GCUUGGUACUACAAUGCCUTT against Sele 0.93
CCUCUUCUGCGCGGAUUUGTT against Ffar4 0.708
GGUGUAUGCCAUUGAGACCTT against Metap2 -0.54
GGACAACAUUAAUGUCAAGTT against Rab3a 1.62
GGUUCCAAGUCAAAGAGUUTT against Foxl1 -0.47
GGGCUUUUCAGACUGUUUGTT against Nrn1 -0.232
GGAAAGUUGUAUUUGAUGUTT against Nudt7 -0.887
GGAGUGCUUGAAGUUAUUATT against Zw10 -0.312
GGUGGCAUACACAUUUGAUTT against Mvd -0.55
CCCAGCUUUUCAACUUGCUTT against Tmc4 -1.19
GGUGAAGAGCUUCUUGAUCTT against Zfyve27 -0.362
CCUUCACCUGGCUAUUAGATT against Kif12 -0.14
CCAAAAGCAGCACAUUUCATT against Ticrr 1.18
GCAAUUAGUGGUUACAAGUTT against Corin 0.339
GCUCUACAGUAGAACAAACTT against Efcab5 1.18
GGAAGAAAACAUGGAAGAATT against Usp47 0.392
GGAAGUCUUGGAUUACAGUTT against Srpr 0.401
GGGAAAUUGUUCGUGACAUTT against Actg1 -1.2
GCCGGGAUUUCGUUUUCUUTT against Gatad2a 1.57
CGCAAGAGGGAUGAAGGUATT against Pax5 -0.0351
CGAGGAAGAGAAUUUCUAUTT against Myc -0.209
GGGUCUGGAAGAUUUCAAATT against H1f7 -1.42
UUAGCCACUCAUUGUUCCATT against Olfr1303 -0.133
GGAGACGUGUCUGAAAGACTT against Glp2r -0.557
GCUUGUAACCUAGCAGCUGTT against Tmem125 -0.562
GGACUGUGUGUGCAAAGGUTT against Mt3 -0.176
GGAUGAGAAUAUUGAAAGATT against 4932415M13Rik -0.225
GGUACUUCAUGAGUUGUUCTT against Flt3 -0.292
GGACCUGUAUCUUGAAUCCTT against Tex2 1.55
GGAAUUAAACCAUUUCAGUTT against Zbtb44 1.28
GGAUCAGAGUAUUUUUGUUTT against Tbx6 -0.296
GGAAGAGACAGAAUUAGUUTT against 9530091C08Rik -0.638
GGCCAAAAAACAAUGCCCATT against Sprr4 -1.46
GCUAGUGAUGCUCUUACAGTT against Fat3 1.69
CGAUCCACUCCCUGAUUCUTT against Gpr151 0.264
CCGCUGAUGAAGAUAGAGATT against 4931414P19Rik 0.922
GGUUUGACUGGCUACCUAUTT against Galnt15 -0.151
GGAAAAACAGCUUAACACUTT against Pate4 0.66
GCUCUCAGGUCCUAAGAGATT against Ighg 0.371
CGUACAAACAUAACUGUGGTT against Acp5 -1.07
AACUUCACUAUCUUGUUGGTT against Olfr594 0.861
GGCUGUCACUUUAUAGGCATT against Wrnip1 -0.862
GGAGACCAGGAAGUGUUGATT against Gal 0.103
GCUUUAGGUCCAUUCGGAGTT against Pkd2l2 0.111
CCACUUCAGUAUUUGGCUUTT against Tas2r137 -0.404
GCUUCAAUAUCUUCGUUGCTT against Olfr1461 -1.24
CGGCAAAGUCCUCACAGCUTT against Ints12 -1.34
GCCAAUCCUUCAUAGUUUUTT against Kif18a 0.683
GGAUGAUGAAUGCAAUUAATT against Eed -0.882
GGAAAGAAACUGCAUCGAGTT against Ccdc144b -0.21
GGUACAGUACAUUGACCUATT against Adck5 1.36
GGACUGAUUGAUAAAGUCATT against Srp54a -0.458
GGUGUUCUGGAAGAAGAAATT against Thoc1 -0.362
GGUUUUUGACAACUUUCUGTT against Fxyd4 -1.6
GCACUAAGCUUUAUUCAUCTT against Mast2 -0.0104
GGAUGUUGGUAGACUUCUUTT against Olfr732 0.558
GGCCAAUCUAUGCUGUCCCTT against Rnf168 -0.767
GGACCAAGAGGACAUUACCTT against Tbl3 -0.971
GCUUAUGAGGCUCAGCAUUTT against Pigh 1.29
AGAAGUCCUCAAAAUGACCTT against Vmn1r181 -1.02
GGAGAGUUUAUCAGACAGUTT against Shmt2 0.45
CGUUUAAAGACUAGCAAGATT against Tab1 0.0468
GCUCUGAUUCAUUACUAUUTT against Mansc1 0.671
GGGACUUUCCCACUCAAAATT against Olfr1295 -0.68
GCCUAACCUGGUAUCCCAGTT against Zfp92 -1.03

As a working copy, some entries already given.
z-score, inactive:
CGUUUAAAGACUAGCAAGATT against Tab1 0.0468
GCUCUGAUUCAUUACUAUUTT against Mansc1 0.671

2 records picked at random from the list so far, as already listed:
z-score, inactive:
GGAAAAACAGCUUAACACUTT against Pate4 0.66
GGAGUGCUUGAAGUUAUUATT against Zw10 -0.312
